Results: PMC6972889, “Structural insight into small molecule action on Frizzleds” (Nature Communications, 2020)

Sequences of proteins named here, by UniProt entry; tags and fusion partners are left off. A change or cut given only in a name is not applied to a line headed by its entry.
UniProt O60353: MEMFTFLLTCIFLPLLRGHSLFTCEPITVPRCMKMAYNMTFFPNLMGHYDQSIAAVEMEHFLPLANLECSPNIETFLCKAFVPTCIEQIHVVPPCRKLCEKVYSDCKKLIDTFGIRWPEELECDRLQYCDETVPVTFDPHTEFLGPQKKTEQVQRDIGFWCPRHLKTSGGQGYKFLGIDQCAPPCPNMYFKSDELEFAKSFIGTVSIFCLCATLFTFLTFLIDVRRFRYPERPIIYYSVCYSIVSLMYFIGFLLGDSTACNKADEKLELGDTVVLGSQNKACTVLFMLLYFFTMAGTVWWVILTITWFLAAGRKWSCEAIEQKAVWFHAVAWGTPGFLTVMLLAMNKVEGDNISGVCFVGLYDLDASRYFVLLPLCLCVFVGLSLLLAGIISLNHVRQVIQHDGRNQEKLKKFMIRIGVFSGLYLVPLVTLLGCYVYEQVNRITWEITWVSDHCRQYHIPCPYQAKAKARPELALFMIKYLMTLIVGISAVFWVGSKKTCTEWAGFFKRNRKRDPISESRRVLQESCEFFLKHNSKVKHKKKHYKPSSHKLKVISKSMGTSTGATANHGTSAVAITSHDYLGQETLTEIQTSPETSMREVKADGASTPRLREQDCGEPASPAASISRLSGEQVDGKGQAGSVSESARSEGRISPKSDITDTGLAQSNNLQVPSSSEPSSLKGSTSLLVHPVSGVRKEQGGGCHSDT
UniProt O14641: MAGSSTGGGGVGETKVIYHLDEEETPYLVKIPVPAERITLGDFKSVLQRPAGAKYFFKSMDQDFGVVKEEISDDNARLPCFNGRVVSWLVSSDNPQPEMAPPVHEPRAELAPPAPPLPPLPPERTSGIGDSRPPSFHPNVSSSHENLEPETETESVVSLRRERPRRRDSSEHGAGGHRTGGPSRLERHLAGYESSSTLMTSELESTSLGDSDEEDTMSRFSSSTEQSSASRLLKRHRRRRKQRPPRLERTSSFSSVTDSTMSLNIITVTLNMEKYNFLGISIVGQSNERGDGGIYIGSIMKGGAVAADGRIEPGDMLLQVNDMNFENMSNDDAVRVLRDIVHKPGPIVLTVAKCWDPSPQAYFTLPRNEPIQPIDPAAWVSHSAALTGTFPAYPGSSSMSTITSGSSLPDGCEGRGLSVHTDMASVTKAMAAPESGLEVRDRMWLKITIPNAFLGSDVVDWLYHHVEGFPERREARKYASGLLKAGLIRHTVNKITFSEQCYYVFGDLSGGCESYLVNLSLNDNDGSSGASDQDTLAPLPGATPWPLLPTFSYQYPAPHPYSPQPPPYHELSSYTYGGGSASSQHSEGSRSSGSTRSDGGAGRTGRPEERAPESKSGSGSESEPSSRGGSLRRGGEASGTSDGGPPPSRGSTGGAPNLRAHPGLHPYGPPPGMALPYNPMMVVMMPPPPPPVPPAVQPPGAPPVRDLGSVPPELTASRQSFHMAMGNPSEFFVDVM

Molecular target: ΔCRD FLAG–FZD6–Venus (human) (UniProt O60353)
Experiment: FRET or BRET; direct BRET in living, transiently transfected cells; Nluc–DVL2 as donor, Venus-tagged FZD6 as acceptor; WNT-5A in ΔFZD1–10 HEK293 cells, SAG1.3 in ΔSMO HEK293 cells; acceptor:donor ratio on the plateau of the saturation curve; HBSS, read 5 min after the ligand

binding: binds
Substance: Nluc–DVL2 (from UniProt O14641 1-736)

No constants are given. Whether binding was seen depends on the method and setting. In cells and extracts the contact can be indirect. A result given as binding can be weak or reduced; the word gives no strength.
